No constants are given. Whether binding was seen depends on the method and setting. Binding seen in cells or lysates may run through a third protein. Some binding calls cover weakened binding; strength is not graded here.

The chains behind the UniProt entries cited, without tags or fusion partners.
UniProt A2BH40: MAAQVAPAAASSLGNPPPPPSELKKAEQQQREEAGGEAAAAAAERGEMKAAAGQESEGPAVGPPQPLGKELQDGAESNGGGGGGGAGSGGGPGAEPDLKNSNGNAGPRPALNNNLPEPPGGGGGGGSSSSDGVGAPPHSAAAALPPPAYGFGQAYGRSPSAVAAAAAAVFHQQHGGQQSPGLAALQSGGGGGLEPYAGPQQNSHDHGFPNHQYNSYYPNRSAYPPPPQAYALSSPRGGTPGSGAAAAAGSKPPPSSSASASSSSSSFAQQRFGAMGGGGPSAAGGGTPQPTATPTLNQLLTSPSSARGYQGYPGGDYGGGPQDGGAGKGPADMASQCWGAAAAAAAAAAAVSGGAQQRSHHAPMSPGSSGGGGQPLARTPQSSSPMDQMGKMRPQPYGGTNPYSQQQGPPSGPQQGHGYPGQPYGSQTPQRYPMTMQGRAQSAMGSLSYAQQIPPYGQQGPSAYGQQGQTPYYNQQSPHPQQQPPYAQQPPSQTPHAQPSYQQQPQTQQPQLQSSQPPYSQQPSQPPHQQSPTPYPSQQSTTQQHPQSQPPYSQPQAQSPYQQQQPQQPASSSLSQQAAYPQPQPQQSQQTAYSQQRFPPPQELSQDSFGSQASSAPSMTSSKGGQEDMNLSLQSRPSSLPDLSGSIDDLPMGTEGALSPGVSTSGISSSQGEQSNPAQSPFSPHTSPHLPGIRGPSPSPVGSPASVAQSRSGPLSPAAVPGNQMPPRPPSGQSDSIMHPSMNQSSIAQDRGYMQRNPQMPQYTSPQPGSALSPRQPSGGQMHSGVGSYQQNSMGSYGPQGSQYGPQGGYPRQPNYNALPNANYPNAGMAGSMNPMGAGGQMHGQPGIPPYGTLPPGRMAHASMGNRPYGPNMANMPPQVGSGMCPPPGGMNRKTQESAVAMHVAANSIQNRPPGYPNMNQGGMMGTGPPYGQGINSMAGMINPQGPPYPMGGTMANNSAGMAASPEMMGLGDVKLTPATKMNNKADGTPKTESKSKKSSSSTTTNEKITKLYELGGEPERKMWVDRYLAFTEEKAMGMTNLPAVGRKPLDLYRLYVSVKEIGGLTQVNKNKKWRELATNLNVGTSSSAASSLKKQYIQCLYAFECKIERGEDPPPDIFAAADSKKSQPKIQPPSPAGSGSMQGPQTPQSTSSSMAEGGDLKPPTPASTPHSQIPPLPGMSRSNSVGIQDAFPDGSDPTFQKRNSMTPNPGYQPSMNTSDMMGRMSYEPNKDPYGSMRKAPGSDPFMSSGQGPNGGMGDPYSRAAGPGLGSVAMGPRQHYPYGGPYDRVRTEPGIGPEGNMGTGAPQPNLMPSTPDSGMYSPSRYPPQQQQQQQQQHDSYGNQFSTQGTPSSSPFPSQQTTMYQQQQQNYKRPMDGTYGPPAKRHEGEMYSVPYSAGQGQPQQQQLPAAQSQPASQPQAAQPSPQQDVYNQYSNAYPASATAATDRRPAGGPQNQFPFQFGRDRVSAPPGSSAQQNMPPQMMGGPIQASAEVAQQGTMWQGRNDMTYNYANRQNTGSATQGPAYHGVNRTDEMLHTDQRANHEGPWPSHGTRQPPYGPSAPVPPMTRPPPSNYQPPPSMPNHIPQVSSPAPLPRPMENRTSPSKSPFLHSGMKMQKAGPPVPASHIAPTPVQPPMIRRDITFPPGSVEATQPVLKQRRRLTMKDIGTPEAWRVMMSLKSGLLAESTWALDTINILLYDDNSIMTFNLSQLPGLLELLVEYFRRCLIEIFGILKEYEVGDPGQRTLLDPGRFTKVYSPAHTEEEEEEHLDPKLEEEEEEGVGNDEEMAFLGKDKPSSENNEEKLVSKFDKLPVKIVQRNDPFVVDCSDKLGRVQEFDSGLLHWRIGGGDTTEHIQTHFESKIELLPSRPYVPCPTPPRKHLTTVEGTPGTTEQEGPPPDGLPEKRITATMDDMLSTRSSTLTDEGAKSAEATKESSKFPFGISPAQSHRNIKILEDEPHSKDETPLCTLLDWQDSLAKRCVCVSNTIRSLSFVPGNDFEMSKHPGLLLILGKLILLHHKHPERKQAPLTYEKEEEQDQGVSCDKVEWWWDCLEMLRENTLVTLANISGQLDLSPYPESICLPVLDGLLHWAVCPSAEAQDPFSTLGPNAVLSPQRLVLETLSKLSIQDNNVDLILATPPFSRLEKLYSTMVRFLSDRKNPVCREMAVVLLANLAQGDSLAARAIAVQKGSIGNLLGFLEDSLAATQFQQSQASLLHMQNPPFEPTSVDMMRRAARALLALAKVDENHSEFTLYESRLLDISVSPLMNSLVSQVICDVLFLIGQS
UniProt Q3TKT4: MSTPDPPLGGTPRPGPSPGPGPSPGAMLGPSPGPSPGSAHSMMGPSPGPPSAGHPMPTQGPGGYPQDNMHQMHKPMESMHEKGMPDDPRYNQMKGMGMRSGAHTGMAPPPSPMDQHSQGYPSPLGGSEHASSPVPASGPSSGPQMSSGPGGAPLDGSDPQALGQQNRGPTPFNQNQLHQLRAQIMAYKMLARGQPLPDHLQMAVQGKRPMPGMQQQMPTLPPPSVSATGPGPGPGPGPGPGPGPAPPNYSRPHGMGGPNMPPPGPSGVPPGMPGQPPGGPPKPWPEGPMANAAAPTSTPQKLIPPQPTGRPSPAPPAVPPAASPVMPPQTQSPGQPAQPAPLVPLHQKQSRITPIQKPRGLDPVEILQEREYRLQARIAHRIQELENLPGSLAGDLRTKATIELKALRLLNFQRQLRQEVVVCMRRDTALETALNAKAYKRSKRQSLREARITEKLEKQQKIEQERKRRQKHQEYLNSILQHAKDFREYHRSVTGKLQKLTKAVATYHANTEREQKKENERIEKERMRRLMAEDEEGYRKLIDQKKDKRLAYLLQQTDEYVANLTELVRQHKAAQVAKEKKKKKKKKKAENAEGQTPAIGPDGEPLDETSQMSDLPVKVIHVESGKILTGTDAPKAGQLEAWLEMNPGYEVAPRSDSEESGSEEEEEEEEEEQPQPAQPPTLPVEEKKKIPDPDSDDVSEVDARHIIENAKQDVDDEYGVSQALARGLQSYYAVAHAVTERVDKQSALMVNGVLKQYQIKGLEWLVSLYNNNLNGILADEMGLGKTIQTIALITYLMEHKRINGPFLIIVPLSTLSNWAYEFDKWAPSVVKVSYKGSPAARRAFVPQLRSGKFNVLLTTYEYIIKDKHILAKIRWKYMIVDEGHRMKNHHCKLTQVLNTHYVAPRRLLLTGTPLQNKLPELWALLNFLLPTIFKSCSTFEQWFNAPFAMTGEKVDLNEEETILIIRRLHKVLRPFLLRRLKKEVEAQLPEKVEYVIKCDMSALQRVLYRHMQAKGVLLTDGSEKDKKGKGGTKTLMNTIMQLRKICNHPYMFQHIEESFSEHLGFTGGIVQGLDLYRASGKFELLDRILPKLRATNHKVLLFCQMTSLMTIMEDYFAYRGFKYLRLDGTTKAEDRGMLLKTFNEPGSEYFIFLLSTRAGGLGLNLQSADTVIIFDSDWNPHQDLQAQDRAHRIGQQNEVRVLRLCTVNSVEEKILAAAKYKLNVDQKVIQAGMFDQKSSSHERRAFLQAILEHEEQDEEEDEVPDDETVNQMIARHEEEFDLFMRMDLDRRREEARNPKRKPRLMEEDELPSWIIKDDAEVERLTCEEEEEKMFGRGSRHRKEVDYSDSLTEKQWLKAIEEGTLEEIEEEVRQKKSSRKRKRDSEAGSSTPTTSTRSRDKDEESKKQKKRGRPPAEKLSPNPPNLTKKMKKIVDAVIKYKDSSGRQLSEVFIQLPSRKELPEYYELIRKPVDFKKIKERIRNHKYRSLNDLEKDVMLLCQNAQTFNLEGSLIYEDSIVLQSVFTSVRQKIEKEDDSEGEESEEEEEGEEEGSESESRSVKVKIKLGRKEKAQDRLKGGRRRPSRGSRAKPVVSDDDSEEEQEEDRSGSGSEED
UniProt Q02248: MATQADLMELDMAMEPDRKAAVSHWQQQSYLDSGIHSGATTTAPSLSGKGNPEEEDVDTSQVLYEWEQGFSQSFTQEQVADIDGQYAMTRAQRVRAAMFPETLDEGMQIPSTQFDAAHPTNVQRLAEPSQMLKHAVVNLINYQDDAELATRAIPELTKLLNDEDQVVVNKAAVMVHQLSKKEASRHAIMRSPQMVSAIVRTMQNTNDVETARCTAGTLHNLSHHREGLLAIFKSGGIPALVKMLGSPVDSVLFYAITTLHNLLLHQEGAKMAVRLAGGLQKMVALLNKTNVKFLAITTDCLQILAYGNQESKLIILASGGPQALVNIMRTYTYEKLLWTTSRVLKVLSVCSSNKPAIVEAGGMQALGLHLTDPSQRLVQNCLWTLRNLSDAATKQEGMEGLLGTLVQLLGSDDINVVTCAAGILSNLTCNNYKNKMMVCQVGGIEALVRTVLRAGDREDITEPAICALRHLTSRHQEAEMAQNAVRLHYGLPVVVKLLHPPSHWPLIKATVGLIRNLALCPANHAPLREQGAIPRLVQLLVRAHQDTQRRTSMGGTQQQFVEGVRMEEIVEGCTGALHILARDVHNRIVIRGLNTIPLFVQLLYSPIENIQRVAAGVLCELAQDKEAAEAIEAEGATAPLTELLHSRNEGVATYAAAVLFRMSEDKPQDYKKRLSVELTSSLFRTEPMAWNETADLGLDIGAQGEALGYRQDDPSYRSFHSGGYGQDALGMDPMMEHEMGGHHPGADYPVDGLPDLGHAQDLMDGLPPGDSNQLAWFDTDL

Drawing on PMC10360407, this text covers binding for three substances.

What all share (assay): co-IP; nuclear fraction (RIPA lysate) of C2C12 myoblasts differentiated for 48 h with DMSO or 50 uM PFI-3; antibodies against β-catenin, BRG1 or BAF250A overnight at 4 °C, protein A beads, washed with RIPA buffer; immunoblot; IgG as control
In experiment [1] the target is BAF250A (mouse (endogenous in C2C12)) (UniProt A2BH40).
In experiment [2] the target is Brahma-Related Gene 1 (BRG1) (mouse (endogenous in C2C12)) (UniProt Q3TKT4).
In experiment [3] the target is β-catenin (mouse (endogenous in C2C12)) (UniProt Q02248).

Regarding β-catenin (from UniProt Q02248 1-781), the binding result in experiment [1] and in experiment [2] was “binds” each time.

With BAF250A (from UniProt A2BH40 1-2283), the binding entry in experiment [2] and in experiment [3] was “binds” throughout.

Regarding “Brahma-Related Gene 1 (BRG1) (from UniProt Q3TKT4 1-1613)”, the binding result in experiment [3] is reported as “binds”.
